Drawing on PMC8384837, this text covers binding signal (log2 enrichment (interaction score)) for one sequence.

Details in all cases: yeast three-hybrid, YBZ-1, SC-Leu-His + 0.5 mM 3-AT, 4 days
In assay [1] the target is T1, PUM1 PUF domain R4-APF N971A + H972P + Q975F (Homo sapiens) (UniProt Q14671).
T1 sequence: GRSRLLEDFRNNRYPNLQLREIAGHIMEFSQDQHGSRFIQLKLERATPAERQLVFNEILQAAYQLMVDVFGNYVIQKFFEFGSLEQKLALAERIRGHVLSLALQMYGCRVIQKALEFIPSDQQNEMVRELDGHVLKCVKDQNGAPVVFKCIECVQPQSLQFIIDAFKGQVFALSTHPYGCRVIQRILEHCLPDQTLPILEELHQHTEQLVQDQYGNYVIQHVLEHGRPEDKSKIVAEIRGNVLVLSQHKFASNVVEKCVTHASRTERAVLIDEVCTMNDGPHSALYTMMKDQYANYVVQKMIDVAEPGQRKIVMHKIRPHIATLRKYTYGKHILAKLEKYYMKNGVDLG

Assay [2] has as its target T2, PUM1 PUF domain R4-CPL N971C + H972P + Q975L (Homo sapiens) (UniProt Q14671).
T2 sequence: T1 sequence with A144C, F148L

Assay [3] addresses T3, PUM1 PUF domain R4-DFT N971D + H972F + Q975T (Homo sapiens) (UniProt Q14671).
T3 sequence: T1 sequence with A144D, P145F, F148T

Assay [4] has as its target T4, PUM1 PUF domain R4-EFG N971E + H972F + Q975G (Homo sapiens) (UniProt Q14671).
T4 sequence: T1 sequence with A144E, P145F, F148G

Assay [5] deals with T5, PUM1 PUF domain R4-FNG N971F + H972N + Q975G (Homo sapiens) (UniProt Q14671).
T5 sequence: T1 sequence with A144F, P145N, F148G

Assay [6] deals with T6, PUM1 PUF domain R4-GMG N971G + H972M + Q975G (Homo sapiens) (UniProt Q14671).
T6 sequence: T1 sequence with A144G, P145M, F148G

In assay [7] the target is T7, PUM1 PUF domain R4-GRI N971G + H972R + Q975I (Homo sapiens) (UniProt Q14671).
T7 sequence: T1 sequence with A144G, P145R, F148I

The target of assay [8] is T8, PUM1 PUF domain R4-MPH N971M + H972P + Q975H (Homo sapiens) (UniProt Q14671).
T8 sequence: T1 sequence with A144M, F148H

Assay [9] addresses T9, PUM1 PUF domain R4-MPV N971M + H972P + Q975V (Homo sapiens) (UniProt Q14671).
T9 sequence: T1 sequence with A144M, F148V

Assay [10] deals with T10, PUM1 PUF domain R4-RCG N971R + H972C + Q975G (Homo sapiens) (UniProt Q14671).
T10 sequence: T1 sequence with A144R, P145C, F148G

In assay [11] the target is T11, PUM1 PUF domain R4-RMG N971R + H972M + Q975G (Homo sapiens) (UniProt Q14671).
T11 sequence: T1 sequence with A144R, P145M, F148G

Assay [12] deals with T12, PUM1 PUF domain R4-RMS N971R + H972M + Q975S (Homo sapiens) (UniProt Q14671).
T12 sequence: T1 sequence with A144R, P145M, F148S

The target in assay [13] is T13, PUM1 PUF domain R4-SML N971S + H972M + Q975L (Homo sapiens) (UniProt Q14671).
T13 sequence: T1 sequence with A144S, P145M, F148L

The target of assay [14] is T14, PUM1 PUF domain R4-SRY N971S + H972R + Q975Y (Homo sapiens) (UniProt Q14671).
T14 sequence: T1 sequence with A144S, P145R, F148Y

For assay [15], the target named is T15, PUM1 PUF domain R4-TRG N971T + H972R + Q975G (Homo sapiens) (UniProt Q14671).
T15 sequence: T1 sequence with A144T, P145R, F148G

In assay [16] the target is T16, PUM1 PUF domain R4-VRT N971V + H972R + Q975T (Homo sapiens) (UniProt Q14671).
T16 sequence: T1 sequence with A144V, P145R, F148T

Assay [17] has as its target T17, PUM1 PUF domain R4-WFG N971W + H972F + Q975G (Homo sapiens) (UniProt Q14671).
T17 sequence: T1 sequence with A144W, P145F, F148G

In assay [18] the target is T18, PUM1 PUF domain R4-WGF N971W + H972G + Q975F (Homo sapiens) (UniProt Q14671).
T18 sequence: T1 sequence with A144W, P145G

Assay [19] concerns the target T19, PUM1 PUF domain R4-WST N971W + H972S + Q975T (Homo sapiens) (UniProt Q14671).
T19 sequence: T1 sequence with A144W, P145S, F148T

Assay [20] addresses T20, PUM1 PUF domain R4-YRL N971Y + H972R + Q975L (Homo sapiens) (UniProt Q14671).
T20 sequence: T1 sequence with A144Y, P145R, F148L

Positions count from the first letter of the chain named. The list shows a part of the results.

Turning to “GGCUAGAACUAGUGGAUCCCCCGGCGCCCGGCGGCUCGAGCCCGGGUAAGUGUACAUAGUCUGCAUGCCGCCGGGCGCCAUGCCUGCAGGUCGACUCUAGAAAACAUG”, the binding signal (log2 enrichment (interaction score)) is -0.81 in assay [1]; -1.02 in assay [2]; -0.91 in assay [3]; -0.43 in [4]; -0.41 in assay [5]; -0.41 in assay [6]. For the same sequence, the binding signal (log2 enrichment (interaction score)) in [7] is -0.6; in assay [8], -0.87; in [9] it was -0.92; in assay [10], -0.5; in [11] it was -0.58; in [12] it was -1.18. Further, the binding signal (log2 enrichment (interaction score)) in assay [13] is -5.1; in [14], -0.62; in [15], -1.14; in assay [16], -0.53; in assay [17], -0.96; in assay [18], -0.89. The values for the binding signal (log2 enrichment (interaction score)) in [19] and in assay [20] were -1 and -1.24, respectively.
